The list shows only some results of the screen, not a fair sample: it gathers tests that were run many times, whatever their T/C, doses with no T/C, and many T/C values between a quarter and a half above the control. Other doses and runs of a compound stand elsewhere. T/C is the treated group as % of the vehicle group. Schedules are NCI's codes, read here as Q, the interval in days (D) or hours (H), X, the number of doses. Some T/C values are followed by the survivors on the day toxicity was checked, most often the fifth; without a count, all were alive then. Some entries give survivors of the animals treated and no T/C: the source files T/C as zero there, which appears to mark a toxic dose or a test without result, not a measured value. Counts of survivors are from the toxicity check (mostly the fifth day) where no day follows; animals may have died later. Some entries hold several experiments; the results are listed from low to high. Some schedules carry Z or #; the key to these is not given.
Test system: BDF1 mice, Adenocarcinoma 755 s.c., tumor weight T/C
Test: NCI In Vivo Anticancer Drug Screen. Data for tumor model Adenocarcinoma 755 (subcutaneous) in B6D2F1 (BDF1) mice
Settings: T/C endpoint: mean tumor weight, higher T/C = larger tumour; for T/C: evaluated on day 12
Procedure, shortened: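 Values express treated (T) relative to vehicle-dosed control (C) animals, based on survival or tumour size measured after compound treatment of mice bearing a transplanted tumour.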

[1] = dose: 125.0 mg/kg/injection, schedule: Q01DX011 (ip), vehicle: carboxymethylcellulose (CMC)
[2] = dose: 250.0 mg/kg/injection, schedule: Q01DX011 (ip), vehicle: carboxymethylcellulose (CMC)
[3] = dose: 75.0 mg/kg/injection, schedule: Q01DX011 (ip), vehicle: methylcellulose (MC)
[4] = dose: 25.0 mg/kg/injection, schedule: Q01DX011 (ip), vehicle: methylcellulose (MC)
[5] = dose: 50.0 mg/kg/injection, schedule: Q01DX011 (ip), vehicle: methylcellulose (MC)
[6] = dose: 100.0 mg/kg/injection, schedule: Q01DX011 (ip), vehicle: methylcellulose (MC)

SMILES: Cn1cnc([N+](=O)[O-])c1Sc1ncnc2nc[nH]c12
- survivor count (dose: 76.0 mg/kg/injection, schedule: Q01DX011 (ip), vehicle: methylcellulose (MC)): 4 of 10
- survivor count (dose: 80.0 mg/kg/injection, schedule: Q01DX011 (oral), vehicle: other): 10 of 16
- survivor count (dose: 128.0 mg/kg/injection, schedule: Q01DX011 (ip), vehicle: other): 0 of 10
- survivor count (dose: 160.0 mg/kg/injection, schedule: Q01DX011 (oral), vehicle: other): 7 of 16
- survivor count (dose: 192.0 mg/kg/injection, schedule: Q01DX011 (ip), vehicle: other): 0 of 10
- survivor count (dose: 256.0 mg/kg/injection, schedule: Q01DX011 (ip), vehicle: other): 0 of 10
- survivor count (dose: 256.0 mg/kg/injection, schedule: Q01DX011 (oral), vehicle: other): 0 of 10
- survivor count (dose: 512.0 mg/kg/injection, schedule: Q01DX011 (oral), vehicle: other): 0 of 10
- survivor count (dose: 1024.0 mg/kg/injection, schedule: Q01DX011 (oral), vehicle: other): 0 of 10

SMILES: CCCCNc1ncnc2c1cnn2C
- survivor count (dose: 62.5 mg/kg/injection, schedule: Q01DX011 (ip), vehicle: carboxymethylcellulose (CMC)): 5 of 10
- survivor count [1]: 0 of 10
- survivor count [2]: 0 of 10

SMILES: CSc1ncnc2c1ncn2CCO
- survivor count [3]: 3 of 10

SMILES: OCC1OC(n2cnc3c(Br)ncnc32)C(O)C1O (configuration not stated)
- T/C (dose: 60.0 mg/kg/injection, schedule: Q01DX011 (ip), vehicle: carboxymethylcellulose (CMC)): 125 % of control

SMILES: Cc1ccc(C(=O)[O][Hg][CH2]C2COC([CH2][Hg][O]C(=O)c3ccc(C)cc3)CO2)cc1 (configuration not stated)
- survivor count (dose: 6.25 mg/kg/injection, schedule: Q01DX011 (ip), vehicle: methylcellulose (MC)): 5 of 10 and 6 of 10
- survivor count [4]: 2 of 10 and 5 of 10
- survivor count [5]: 1 of 10
- survivor count [6]: 4 of 10

SMILES: CCCCOC(=O)C1(N)CCCC1
- survivor count (dose: 100.0 mg/kg/injection, schedule: Q01DX011 (ip), vehicle: carboxymethylcellulose (CMC)): 4 of 10

SMILES: Nc1nc(N)c2[nH]c(N=Nc3ccc(N(CCO)CCO)cc3)nc2n1
- T/C (dose: 75.0 mg/kg/injection, schedule: Q01DX011 (ip), vehicle: saline): 145 % of control [9 of 10 alive]

SMILES: CC(=O)[C@@]12OC(C)(C)O[C@@H]1C[C@H]1[C@@H]3C[C@H](C)C4=CC(=O)CC[C@]4(C)[C@H]3CC[C@@]12C
- survivor count (dose: 450.0 mg/kg/injection, schedule: Q01DX011 (sc), vehicle: steroid suspending solution): 2 of 10 and 6 of 10

SMILES: CCc1nc(N)nc(N)c1-c1ccc(Cl)cc1
- T/C (dose: 5.93 mg/kg/injection, schedule: Q01DX011 (ip), vehicle: carboxymethylcellulose (CMC)): 135 % of control
- T/C (dose: 12.5 mg/kg/injection, schedule: Q01DX011 (ip), vehicle: methylcellulose (MC)): 126 % of control
- T/C [4]: 127 % of control
- survivor count [5]: 3 of 10
- survivor count [6]: 2 of 10

SMILES: Cn1c(=O)c2[nH]c(CCl)nc2n(C)c1=O
- T/C [3]: 127 % of control [9 of 10 alive]
- survivor count (dose: 225.0 mg/kg/injection, schedule: Q01DX011 (ip), vehicle: methylcellulose (MC)): 2 of 10

SMILES: Cn1c(=O)c2[nH]c(/N=N/N3CCN(CCO)CC3)nc2n(C)c1=O
- T/C (dose: 25.0 mg/kg/injection, schedule: Q01DX011 (ip), vehicle: other): 126 % of control

SMILES: CSc1ncc(Br)c(SC)n1
- survivor count (dose: 15.0 mg/kg/injection, schedule: Q01DX011 (ip), vehicle: methylcellulose (MC)): 1 of 10
- survivor count (dose: 125.0 mg/kg/injection, schedule: Q01DX011 (ip), vehicle: methylcellulose (MC)): 6 of 10
- survivor count (dose: 250.0 mg/kg/injection, schedule: Q01DX011 (ip), vehicle: methylcellulose (MC)): 1 of 10

SMILES: COC(C(O)C(O)C(O)C(O)CO)n1cnc2cncnc21 (configuration not stated)
- T/C (dose: 170.0 mg/kg/injection, schedule: Q01DX011 (ip), vehicle: carboxymethylcellulose (CMC)): 147 % of control

SMILES: CCCCSc1ncnc2nc[nH]c12
- survivor count [2]: 2 of 10
- survivor count (dose: 1000.0 mg/kg/injection, schedule: Q01DX011 (ip), vehicle: carboxymethylcellulose (CMC)): 0 of 10

SMILES: S=c1nc[nH]c2c1ncn2C1CCCS1 (configuration not stated)
- T/C [4]: 148 % of control

SMILES: CN(C)c1ccc(/C=C/C2=[N+](C)c3ccccc3C2(C)C)cc1
- survivor count (dose: 4.0 mg/kg/injection, schedule: Q01DX011 (ip), vehicle: other): 1 of 10

SMILES: O=C(Nc1ncnc2nc[nH]c12)C(Cl)Cl
- T/C (dose: 50.0 mg/kg/injection, schedule: Q01DX011 (ip), vehicle: saline): 126 % of control
- survivor count (dose: 200.0 mg/kg/injection, schedule: Q01DX011 (ip), vehicle: saline): 2 of 10

SMILES: Cn1c(=O)c2c(nc(Cl)n2CCl)n(C)c1=O
- survivor count [3]: 3 of 10

SMILES: CCOC(=O)C(N)Cc1ccc(N(CCCl)CCCl)cc1 (configuration not stated)
- survivor count (dose: 9.0 mg/kg/injection, schedule: Q01DX011 (ip), vehicle: saline): 3 of 10

SMILES: Oc1ccc2ccccc2c1N=Nc1ccc(N=Nc2ccccc2)cc1
- T/C (dose: 50.0 mg/kg/injection, schedule: Q01DX011 (ip), vehicle: carboxymethylcellulose (CMC)): 141 % of control

SMILES: Nc1nc(N)c(N=O)c(Nc2ccc(Br)cc2)n1
- survivor count (dose: 175.0 mg/kg/injection, schedule: Q01DX011 (ip), vehicle: methylcellulose (MC)): 4 of 10 and 6 of 10
- survivor count (dose: 350.0 mg/kg/injection, schedule: Q01DX011 (ip), vehicle: methylcellulose (MC)): 4 of 10

SMILES: NCC(=O)Nc1ccc(O)cc1
- survivor count (dose: 400.0 mg/kg/injection, schedule: Q01DX011 (ip), vehicle: carboxymethylcellulose (CMC)): 2 of 10 and 4 of 10

SMILES: CCC(C)Cn1cnc2c(=O)[nH]c(N)nc21 (configuration not stated)
- survivor count (dose: 300.0 mg/kg/injection, schedule: Q01DX011 (ip), vehicle: methylcellulose (MC)): 4 of 10

SMILES: O=C1c2ccccc2C(=O)c2c1c(O)c1ccccc1c2O
- survivor count (dose: 100.0 mg/kg/injection, schedule: Q#A X022 (ip), vehicle: other): 4 of 10
- survivor count (dose: 200.0 mg/kg/injection, schedule: Q#A X022 (ip), vehicle: other): 6 of 10
- survivor count (dose: 400.0 mg/kg/injection, schedule: Q#A X022 (ip), vehicle: other): 4 of 10

SMILES: C[C@]1(O)CC[C@H]2[C@@H]3CC[C@@H]4CC(=O)CC[C@]4(C)[C@@]3(F)C(=O)C[C@@]21C
- T/C (dose: 25.0 mg/kg/injection, schedule: Q01DX011 (sc), vehicle: steroid suspending solution): 129 % of control

SMILES: CN(Cc1cnc2nc(NCNC(=O)C3=C(O)[C@@]4(O)C(=O)C5=C(O)c6c(O)cccc6[C@@](C)(O)[C@H]5C[C@H]4[C@H](N(C)C)C3=O)nc(N)c2n1)c1ccc(C(=O)NC(CCC(=O)O)C(=O)O)cc1 (some centres not stated)
- survivor count (dose: 6.0 mg/kg/injection, schedule: Q01DX011 (ip), vehicle: saline): 0 of 10
- survivor count (dose: 24.0 mg/kg/injection, schedule: Q01DX011 (ip), vehicle: saline): 3 of 10
- survivor count (dose: 48.0 mg/kg/injection, schedule: Q01DX011 (ip), vehicle: saline): 0 of 10

SMILES: COc1ccc(CSc2ncnc3nc[nH]c23)cc1
- survivor count [2]: 1 of 10
- survivor count (dose: 500.0 mg/kg/injection, schedule: Q01DX011 (ip), vehicle: carboxymethylcellulose (CMC)): 0 of 10

SMILES: O=C(Nc1ccc(C2=NCCCN2)cc1)c1ccc(NC(=O)c2ccc(C3=NCCCN3)cc2)cc1
- survivor count (dose: 16.0 mg/kg/injection, schedule: Q01DX011 (ip), vehicle: carboxymethylcellulose (CMC)): 5 of 10

SMILES: O=C(NCCCCCCCCCCNC(=O)N1CC1)N1CC1
- survivor count (dose: 2.0 mg/kg/injection, schedule: Q01DX011 (ip), vehicle: carboxymethylcellulose (CMC)): 2 of 10
- survivor count (dose: 4.0 mg/kg/injection, schedule: Q01DX011 (ip), vehicle: carboxymethylcellulose (CMC)): 0 of 10

SMILES: CCCCn1cnc2c(=S)nc[nH]c21
- survivor count (dose: 1.2 mg/kg/injection, schedule: Q01DX011 (ip), vehicle: olive oil, sesame oil, peanut oil): 6 of 10
- survivor count (dose: 2.5 mg/kg/injection, schedule: Q01DX011 (ip), vehicle: olive oil, sesame oil, peanut oil): 5 of 10
- survivor count [1]: 0 of 10

SMILES: Ic1ncnc2c1ncn2C1CCCS1 (configuration not stated)
- T/C [4]: 132 % of control
